Results as given in patent US10294204B2, “Fluorescence compounds and preparation method thereof” (BioActs Co., Ltd., priority 2016, dated 2019).

How the values were obtained:
[1] = tested on: Gt anti-Ms IgG H+L Secondary Ab; experiment: Test Example 5 (1): labeling of antibody with 552 wavelength dyes, D/P ratio and conjugate fluorescence; conditions: 0.5 mg antibody
Protocol: Compound 18 and the reference fluorescent dye (Alexa Fluor 555 NHS ester) are used to label an antibody (Pierce™ Gt anti-Ms IgG H+L Secondary Ab, 10 mg/mL, Thermo) and the resultant conjugates are compared with each other in terms of fluorescence intensity. Each of Compound 18 and the reference fluorescent dye is dissolved into DMF to provide a stock solution at 10 mg/mL. Samples 1 and 2 are obtained from 0.5 mg of the antibody through the reaction ratio with a dye of 25 mol and Sample 3 is prepared through the reaction with 0.083 mg of Compound 18 in order to further determine the result obtained under the same weight ratio based on the reference fluorescent dye.
The final reaction concentration of the antibody is set to 2 mg/mL and a reaction buffer is prepared by mixing 10 mM phosphate buffered saline (hereinafter, 1×PBS) with pH 9.4 1M sodium-carbonate-bicarbonate buffer (hereinafter, 1M CBC) so that the final pH may be about 8.3-8.5. Samples 1-3 are allowed to react under room temperature/dark chamber/agitation conditions for 1 hour, and purified through a column filled with Sephadex G-25 resin (GE Healthcare) to isolate the conjugates. The resin is subjected to buffer equilibrium (buffer change) with 1×PBS before its use. At a wavelength of 280/552 nm, each conjugate is subjected to absorption spectrometry (Cary 8454 UV-Vis spectrophotometer, Agilent) to determine the Dye/Protein ratio (D/P ratio) first. Next, the conjugates are determined for fluorescence (LS 55 Fluorescence spectrometer, Perkin Elmer) to carry out comparison of fluorescence intensity. Fluorescence determination is carried out by mixing each conjugate with 3 mL of 1×PBS to perform dilution and then under the setting of Excitation 552 nm.
The same results can be seen herein.

[2] = tested on: Gt anti-Rb IgG H+L Secondary Ab; experiment: Test Example 5 (2): labeling ratio (D/P ratio) of 650 wavelength dye depending on reacted amount of dye; conditions: Ab 0.5 mg
Protocol: Each of Compound 20 and the reference fluorescent dye (Alexa Fluor 647 NHS ester) is used for labeling 0.5 mg of an antibody (Pierce™ Gt anti-Rb IgG H+L Secondary Ab, 10 mg/mL, Thermo) at a different weight ratio. For reference, Compound 20 has a molecular weight of 1254.7 g/mole and the reference fluorescent dye has a molecular weight of 956.1 g/mole. The same labeling method as Test Example 5-(1) is repeated, except that the amount of a dye is set to 0.01, 0.03, 0.05, 0.10 or 0.14 mg. Each conjugate isolated after the labeling and purification is analyzed for absorbance at a wavelength of 280/650 nm, and the generally known mathematical formula is used to calculate labeling ratios. For Compound 20 and the reference fluorescent dye, a molar absorption coefficient of 239,000/cmM (in PBS), a protein molar absorption coefficient of 203,000/cmM and a correction factor (CF280) of 0.03 are used. […] When at least 0.10 mg (about 25 moles after molar conversion) of a dye is reacted without application of molar ratio, the labeling ratio of Compound 20 starts to be higher than that of the reference fluorescent dye. In addition, as mentioned above, Compound 20 has a molecular weight of 1254.7 g/mole which is larger than the molecular weight (956.1 g/mole) of the reference fluorescent dye (by about 30% or more). Thus, even though Compound 20 and the reference fluorescent dye are used at the same weight, Compound 20 is introduced in a relatively smaller molar number as compared to the reference fluorescent dye.

[3] = tested on: Gt anti-Rb IgG H+L Secondary Ab; experiment: Test Example 5 (3),(4): fluorescence intensity of IgG conjugates of 650 wavelength dye depending on reacted amount and labeling ratio; conditions: for tendency of fluorescence intensity depending on the reacted amount of dye: 0.01-0.14 mg dye per 0.5 mg antibody
Protocol: The conjugates extracted from Test Example 5-(2) are used to compare the fluorescence intensity of Compound 20 with that of the reference fluorescent dye upon the labeling of a protein as a function of reacted amount. To the first line and the second line of a 96-well black plate, [IgG-Compound 20] conjugate and [IgG-reference fluorescent dye] conjugate is injected after diluting each conjugate at a ratio of 1/10 in the order of dye amount. To the fourth line, 1×PBS is introduced as a blank. All analytical samples are introduced in an amount of 100 μL and the protein concentration is the same with a neglectable error. Then, imaging is carried out in an FOBR Red channel and analysis based on a multilabel plate reader (Enspire 2300, Perkin Elmer) is performed in order to accomplish more accurate numerical comparison. Determination is carried out under adequate setting conditions including Ex. 650 nm/Em. 655 nm, a number of flashes of 200, or the like. […] The maximum fluorescence intensity is determined when 0.5 mg of the antibody reacts with 0.1 mg of Compound 20. When the reaction amount of Compound 20 is merely 0.03 mg, the fluorescence intensity is similar to the maximum value. Thus, it is expected that, Compound 20 is excellent as compared to the reference fluorescent dye and may show higher fluorescence even when used in a smaller amount for labeling a biomolecule.
Based on the results of Test Examples 5-(2) and 5-(3), the fluorescence intensity of each of Compound 20 and the reference fluorescent dye depending on labeling ratio is shown in FIG. 13. […] It can be also seen that even when the reacted amount of dye is smaller, i.e., when the labeling ratio is lower, Compound 20 accomplishes higher fluorescence intensity as compared to the reference fluorescent dye. […] In the case of the reference fluorescent dye, auto-quenching proceeds form a relatively low labeling ratio of about 6.

[4] = reaction ratio with dye of 25 mol (Samples 1 and 2)

Molecule | D/P ratio ([1]; 0.083 mg of dye (8.30 uL), same weight as reference dye (Sample 3)) | D/P ratio [1, 4] | D/P ratio ([2]; dye 0.01 mg (1 uL)) | D/P ratio ([2]; dye 0.03 mg (3 uL)) | D/P ratio ([2]; dye 0.05 mg (5 uL)) | D/P ratio ([2]; dye 0.10 mg (10 uL)) | D/P ratio ([2]; dye 0.14 mg (14 uL)) | reacted amount of dye giving the maximum fluorescence intensity ([3]; 0.5 mg of the antibody) [mg] | tendency of fluorescence intensity depending on the reacted amount of dye [3] | labeling ratio from which auto-quenching proceeds ([3]; FIG. 13)
CC1(CCCCCC(=O)NCCCNc2nc(Cl)nc(NCCCCCC(=O)ON3C(=O)CCC3=O)n2)C(/C=C/C=C2/N(CCCS(=O)(=O)O)c3ccc(S(=O)(=O)O)cc3C2(C)C)=[N+](CCCS(=O)(=O)O)c2ccc(S(=O)(=O)[O-])cc21 (centres unmarked) [Compound 18] | 7.12 | 8.42 |  |  |  |  |  |  |  | 
Alexa Fluor 555 NHS ester [reference compound] |  | 8.71 |  |  |  |  |  |  |  | 
CC1(CCCCCC(=O)NCCCNc2nc(Cl)nc(NCCCCCC(=O)ON3C(=O)CCC3=O)n2)C(/C=C/C=C/C=C2/N(CCCS(=O)(=O)O)c3ccc(S(=O)(=O)O)cc3C2(C)C)=[N+](CCCS(=O)(=O)[O-])c2ccc(S(=O)(=O)O)cc21 (centres unmarked) [Compound 20] |  |  | 1.04 | 3.01 | 4.45 | 7.40 | 10.13 | 0.1 | continuous increase in intensity even up to 0.10 mg | 
Alexa Fluor 647 NHS ester [reference compound] |  |  | 1.35 | 3.42 | 5.37 | 7.27 | 9.76 |  | decrease in intensity after 0.05 mg | about 6
